For some assays here: At least one compound was matched to its structure with a doubt left. Some entries share one result that the patent states for a list of compounds.
What was measured:
KCNQ1/KCNE1 = biological target: T1, KCNQ1/KCNE1 (Homo sapiens, UniProt P51787); assay: KCNQ1/KCNE1 (IKS) current amplitude; assay type: cell-based; conditions: results not shown
T1 construct: expressed in transfected cells; host or cells: Xenopus oocytes (stated for Compound 6)
Method: Briefly, two-electrode voltage-clamp measurements were performed 3-5 days following cRNA microinjection into oocytes. Oocytes were bathed in a modified ND96 solution containing (in mM): 96 NaCl, 2 KCl, 1 MgCl2, 0.1 CaCl2 and 5 HEPES titrated to pH=7.4 with NaOH. Whole-cell currents were recorded at room temperature (20° C.-22° C.) using a GeneClamp 500 amplifier (Axon Instruments, Foster City, Calif., USA). […] Current signals were filtered at 0.5 kHz and digitized at 2 kHz.
The current amplitude of the various channels was measured from a −80 mV holding potential.

KCNQ2/3 channels = biological target: T2, KCNQ2/3 channels (Homo sapiens, UniProt O43525+O43526); assay: KCNQ2/3 current in transfected CHO cells, whole-cell patch-clamp; assay type: cell-based
T2 construct: expressed in transfected cells; host or cells: CHO cells

Row | Structure (SMILES) | effect on KCNQ1/KCNE1 cardiac channels (KCNQ1/KCNE1) | V50 of KCNQ2/3 current activation with compound (KCNQ2/3 channels; 100 μM, CHO cells) [mV] | leftward shift in the voltage-dependence of KCNQ2/3 current activation (KCNQ2/3 channels; 100 μM, CHO cells) [mV] | leftward shift of the threshold for channel activation (KCNQ2/3 channels; 100 μM, CHO cells) | slope parameter s of the Boltzmann fitting curve (KCNQ2/3 channels; 100 μM, CHO cells) [mV/e fold] | KCNQ2/3 current amplitude with compound (KCNQ2/3 channels; 100 μM, train protocol, stepped to −30 mV, control 945±135 pA) [pA] | time constant for deactivation τdeact with compound (KCNQ2/3 channels; 100 μM, prepulse −20 mV, tail −60 mV) [ms] | effect on KCNQ2/3 activation kinetics (KCNQ2/3 channels; CHO cells) | voltage threshold of KCNQ2/3 current activation upon exposure (KCNQ2/3 channels; CHO cells, control −50 mV) | increase of KCNQ2/3 current amplitude (KCNQ2/3 channels; at −40 mV, CHO cells) [fold] | increase of KCNQ2/3 current amplitude (KCNQ2/3 channels; at −50 mV, CHO cells)
1 | O=C(Cc1ccccc1Nc1c(Cl)cccc1Cl)NCCOCCO [Compound 6] | no effect | – | – | – | – | – | – | – | – | – | –
2 | CCn1c(=O)[nH]c2ccccc21 [Compound 10, 1-ethyl benzimidazolone] | – | −30.8±2.8 | 7.9 | about 10 mV | −9.5±0.7 | 1483±194 | 110.1 ± 9.5 | did not affect | about −60 mV | > 3 | more than 10 fold
